According to patent EP0652217A1, “N-substituted imidazole derivatives” (MITSUBISHI CHEMICAL CORPORATION, priority 1993, dated 1995):
At least one read-out could not be matched to a standard name with certainty.

Tested on: Spontaneously hypertensive rats (SHR)
Test: Antihypertensive activity: blood pressure lowering in SHR
Format: in vivo
Details: oral, suspended in 1.0 % Tween 80
Description: Spontaneously hypertensive rats (SHR) were anesthetized with ether and polyethylene catheter for measurement of blood pressure was inserted in ventral aortas via caudal artery on the day before these experiments, and placed in separate cages and their tails were fixed. Under aparalytic conditions, blood pressure of semi-restrained rats was measured using a pressure transducer (TP-400T, manufactured by Nippon Koden). Heart rate was determined from pulse wave measured by a cardiotachometer (AT0691G, manufactured by Nippon Koden). On the test day, the test compounds were administered to rats after blood pressure and heart rate were confirmed to become sufficiently stable.
The test compounds were suspended in Tween 80 (1.0 % solution, 10 ml/kg) and orally administered to SHRs.

Structure (SMILES)	Maximum fall in blood pressure (dose 10 mg/kg) [mmHg]	Maximum fall in blood pressure (dose 30 mg/kg) [mmHg]	Maximum fall in blood pressure (dose 100 mg/kg) [mmHg]
c1cc(OCCCn2ccnc2)c2c(c1)OCO2 [Compound 1, 4-[3-(1-imidazolyl)propoxy]-1,3-benzodioxole]	-28.9	-69.8	-86.8
O=C(NCCCn1ccnc1)c1ccc2c(c1)OCO2 [Compound 13, N-[3-(1-imidazolyl)propyl]-3,4-methylenedioxybenzamide]	-27.3	-50.5	-75.2
